Test results taken from the supplement of paper PMC6078165.
Values are relative to the signal before dosing, not to a vehicle control; the signal also falls without drug.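 Fibroblast labels name human fibroblasts: mostly primary ones from tissues such as uterus (C12385, HUF), lung (H6013), bone (Hs27A), adrenal (HADF) and skin (WS1), plus mammary HMF and breast cancer-associated Hs343T. The cancer cells are basal-like or mesenchymal-like triple-negative breast cancer lines. The paper calls a changed response a hit when it shifts by more than 3x the replicate standard deviation. The tissue of the other fibroblasts is not given here.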

Tested on: Hs578T
Test: relative JC-1 red fluorescence (viability) vs pre-drug, coculture with fibroblast (fraction); higher = more viable cancer cells
Conditions: 1 µM
Description: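 JC-1 labelled TNBC cells cocultured 1:1 (1,500 cells each) with CellTrace Violet stained primary or stromal fibroblasts in 384-well plates in FluoroBrite medium, treated with one of 42 anticancer drugs at 0.1, 1, 10 or 100 uM. JC-1 red fluorescence (mitochondrial integrity in cancer cells only) was read by plate reader every 8 h for 72 h. Values are normalised to each well's pre-drug value. The stock of one drug was tenfold lower, so its dose labels may be too high.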

CC[C@]1(O)C[C@H]2CN(CCc3c([nH]c4ccccc34)[C@@](C(=O)OC)(c3cc4c(cc3OC)N(C=O)[C@H]3[C@@](O)(C(=O)OC)[C@H](OC(C)=O)[C@]5(CC)C=CCN6CC[C@]43[C@@H]65)C2)C1 [Vincristine]
Conditions	relative JC-1 red fluorescence
8 h	0.927
16 h	0.856
24 h	0.773
32 h	0.71
40 h	0.62
48 h	0.579
56 h	0.56
64 h	0.531
72 h	0.541

relative JC-1 red fluorescence
Conditions	8 h	16 h	24 h	32 h	40 h	48 h	56 h	64 h	72 h
coculture fibroblast: C12385	0.842	0.7321	0.661	0.565	0.483	0.452	0.43	0.43	0.434
coculture fibroblast: H6013	0.937	0.8881	0.826	0.803	0.761	0.75	0.739	0.739	0.719
coculture fibroblast: H6019	0.824	0.745	0.699	0.616	0.567	0.549	0.5264	0.517	0.509
coculture fibroblast: H6076	0.9242	0.8515	0.7722	0.734	0.664	0.642	0.625	0.626	0.629
coculture fibroblast: H6231	0.912	0.818	0.729	0.696	0.613	0.569	0.521	0.499	0.4935
coculture fibroblast: HADF	0.912	0.8607	0.7816	0.693	0.635	0.59	0.55	0.524	0.498
coculture fibroblast: HCFa	0.889	0.826	0.7377	0.674	0.606	0.595	0.562	0.552	0.524
coculture fibroblast: HCPF	0.939	0.85	0.785	0.749	0.661	0.616	0.576	0.535	0.52747
coculture fibroblast: HHSteC	0.927	0.887	0.776	0.685	0.616	0.583	0.545	0.521	0.481
coculture fibroblast: HMF	0.9134	0.836	0.763	0.735	0.645	0.61	0.555	0.548	0.545
coculture fibroblast: HPFa	0.927	0.885	0.764	0.677	0.594	0.548	0.501	0.482	0.446
coculture fibroblast: HUF	0.87	0.773	0.696	0.586	0.509	0.468	0.423	0.418	0.412
coculture fibroblast: Hs27A	0.8943	0.853	0.798	0.72	0.65	0.637	0.609	0.603	0.567
coculture fibroblast: Hs343T	0.895	0.793	0.7054	0.7009	0.629	0.598	0.562	0.553	0.562
coculture fibroblast: WS1	0.836	0.726	0.651	0.549	0.484	0.4453	0.411	0.407	0.411
